# Among all 400,000 compounds or so, about 13,000 (3.2%) were called active. Inconclusive results, whose numbers are uncertain, are shown with a selection of clear calls. Calls follow the shape of the dose curve; as a rule, active = well fitted cell-killing curve with a large enough effect; inconclusive = small, poorly fitted or top-dose-only effect, or effect the other way; inactive = flat fitted curve, though single readings scatter. Potencies beside an inconclusive call are fits to weak or partial responses and may not hold up.
# Assay: qHTS assay for MDR1-selective chemotherapeutics: Primary screen using the drug-selected MDR subline cells KB-V1; also: nearly all actives have a fitted effect of over 60% in size
# Settings: KB-V1 MDR cells viability, CellTiter-Glo, 72 h; activity change, negative = cytotoxicity: at 46.1 µM (top of the series)
# Summary of the method: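 Drug-selected KB-V1 cells, grown in DMEM lacking phenol red with 10% FBS, receive compound titrations; after three days at 37 degrees C, surviving cell ATP is quantified by CellTiter-Glo luminescence and responses normalized and curve-fitted.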
# % is scaled to controls: 0 for no effect and ±100 for the full control effect; potency is read from the fitted curve at half-maximal effect.
Compound,Potency,"activity change, negative = cytotoxicity"
OC(CN(c1ccccc1)c1ccccc1)Cn1cnc2ccccc21 (centres undefined),active: 18.4 µM,–
Cc1cc(C)n(Cc2ccc(C(=O)NCCC3=CCCCC3)o2)n1,"inconclusive: 8.2 µM [cytotoxic, partial curve]",–
CCOC(=O)c1c(C)[nH]c(O)c1C=Nc1ccc(Cl)cc1,"inconclusive: 29.1 µM [cytotoxic, partial curve, poor fit]",–
CCCCCCCCN=C1NC(=O)CS1,active: 13 µM,–
C[C@H]1CN([C@@H](C)CO)C(=O)Cc2cc(NC(=O)CCC(F)(F)F)ccc2O[C@H]1CN(C)Cc1ccc(-c2ccccc2)cc1,"inconclusive: 16.4 µM [cytotoxic, single point]",–
CC(=O)c1ccc(Oc2cc(C)nc(NCc3ccccc3)n2)cc1,active: 16.4 µM,–
CCOc1ccc(-c2cc(-c3nc(-c4cc(OC)c(OC)c(OC)c4)no3)[nH]n2)cc1Cl,–,inactive: 4.4%
CC1=CC(C)(C)[N+](C)(C)c2ccccc21,"inconclusive: 29.1 µM [rising, single point]",–
CN(C)S(=O)(=O)c1ccc(C(=O)Nc2cc(=O)n(C)c(=O)n2C)cc1,–,inactive: 0.338%
Clc1ccc(CSc2nnc(-c3c[nH]c4ccccc34)o2)cc1,"inconclusive: 20.6 µM [cytotoxic, single point]",–
Nc1c(Cl)ncnc1NCCc1ccc(O)cc1,"inconclusive: 1.64 µM [cytotoxic, full curve]",–
COc1ccc(Nc2nc3cc(Cl)c(Cl)cc3n3cnnc23)cc1Cl,–,inactive: 9.1%
O=C(COC(=O)C1CC(=O)N(Cc2ccccc2)C1)Nc1ccc(Cl)cc1F (centres undefined),"inconclusive: 25.9 µM [rising, partial curve, poor fit]",–
Cn1c(=O)oc2cc(S(=O)(=O)N3CCC(C(=O)NCc4ccc(F)cc4)CC3)ccc21,"inconclusive: 2.59 µM [rising, full curve, poor fit]",–
Cc1ccc(OCCNC(=O)/C=C/c2ccc([N+](=O)[O-])cc2)cc1C,–,inconclusive: -24.8%
Clc1ccccc1Nc1c2c(nc3ncnn13)CCC2,"inconclusive: 29.1 µM [cytotoxic, single point]",–
Cc1ccc2[nH]c3c(c2c1)CCNC3=O,active: 5.8 µM,–
CCCOc1ccc(C(=O)N2CC3(CC(c4cccc(NC(=O)[C@@H]5CCC(=O)N5)c4)=NO3)C[C@H]2C(=O)NC2(C(N)=O)CC2)cc1 (some centres undefined),"inconclusive: 29.1 µM [rising, single point]",–
O=C(/C=C/c1ccccc1Cl)NCc1cccs1,"inconclusive: 23.1 µM [cytotoxic, single point]",–
Clc1ccccc1-c1cccc2nccn12,"inconclusive: 32.6 µM [cytotoxic, single point]",–
S=c1[nH]nc(COc2ccc(Cl)cc2)n1C1CCCCC1,–,inactive: -26.9%
Cc1ccc(-c2nc3cc(NC(=O)C(C)C)ccc3o2)cc1,–,inactive: 3.62%

Compound,Potency,"activity change, negative = cytotoxicity"
CC(C)(C)NC(=S)NNC(=O)c1cccc(Br)c1,active: 16.4 µM,–
CCOC(=O)c1sc(NC(=O)c2ccc(S(=O)(=O)N3CCCCCC3)cc2)nc1-c1ccccc1,"inconclusive: 16.4 µM [cytotoxic, single point]",–
Cc1ccccc1Cn1nnc2c(=O)[nH]c(C3CCCN(C(=O)c4ccc(F)cc4)C3)nc21 (centres undefined),–,inconclusive: -30.2%
O=C(NC1(C(F)(F)F)N=C(c2ccccc2)NC1=O)c1ccc(Cl)cc1Cl (centres undefined),active: 18.4 µM,–
CC(C)(C)c1ccc(C(=O)NCC(=O)OCC(=O)N2CCCC2)cc1,"inconclusive: 10.3 µM [rising, partial curve]",–
O=C(/C=C/c1ccccc1)NNC(=O)c1ccco1,"inconclusive: 6.51 µM [cytotoxic, partial curve, poor fit]",–
Cc1ccc2occ(/C=N/NC(=O)c3ccccc3Br)c(=O)c2c1,–,inactive: 11.5%
Cc1ccc(C(C)NC(=O)c2cc3cc(Br)ccc3oc2=N)cc1 (centres undefined),"inconclusive: 20.6 µM [cytotoxic, single point]",–
Cc1ccc(C)c(COC(=O)c2cc([N+](=O)[O-])ccc2N2CCOCC2)c1,"inconclusive: 29.1 µM [cytotoxic, single point]",–
CC(C)C[C@@H]1COc2cc(N3CCC[C@@H]3CO)ccc2S(=O)(=O)N1,"inconclusive: 18.4 µM [cytotoxic, partial curve, poor fit]",–
COc1cc2c(cc1OC)C(COc1ccc(C(C)C)cc1)N(C(=O)c1ccc(S(=O)(=O)N3CCCC3)cc1)CC2 (centres undefined),–,inactive: 0.0581%
CCC(=O)NCc1cc(-c2nn(C)c(=O)c3ccccc23)ccc1C,"inconclusive: 29.1 µM [cytotoxic, single point]",–
COc1cc(OC)c(OC)cc1/C=N/NC(=O)CC1C(=O)NN=C1C (centres undefined),"inconclusive: 23.1 µM [rising, single point]",–
Cc1ccc(NC2CCCN(C(=O)CCC3(C)CC3)C2)cc1C (centres undefined),"inconclusive: 18.4 µM [cytotoxic, single point]",–
O=C(COC(=O)/C=C/c1ccco1)Nc1cc(S(=O)(=O)N2CCOCC2)ccc1Cl,"inconclusive: 20.6 µM [cytotoxic, single point]",–
Cc1ccc(C)c(CN2C(=O)c3ccccc3S(=O)c3ccc(C(=O)N4CCN(c5ccccc5F)CC4)cc32)c1 (centres undefined),"inconclusive: 2.91 µM [cytotoxic, full curve, poor fit]",–
CCCN1C(=O)c2ccccc2NC1c1ccc(OC)c(COc2cccc(C)c2C)c1 (centres undefined),"inconclusive: 32.6 µM [cytotoxic, single point]",–
Cc1cc([N+](=O)[O-])ccc1NC(=O)C(C)N1CCN(c2ccccn2)CC1 (centres undefined),active: 20.6 µM,–
Cc1ccc2c(c1)N(C(=O)CCC(=O)NCc1cccs1)CCO2,–,inactive: 15%
Cc1[nH]n(-c2ccccc2)c(=O)c1N=Nc1nccs1,"inconclusive: 4.11 µM [cytotoxic, full curve, poor fit]",–
COc1cc(N2C(=O)CSC23C(=O)N(Cc2ccc(C)cc2)c2ccccc23)cc(OC)c1OC (centres undefined),"inconclusive: 4.11 µM [cytotoxic, partial curve]",–
CCc1nc2ccc(C(=O)NCCc3ccc(SC)cc3)cc2nc1CC,–,inactive: 2.44%

# Structural class, the compounds so far with a nitro group on carbon
Compound,Potency,"activity change, negative = cytotoxicity"
Cc1ccc(OCCNC(=O)/C=C/c2ccc([N+](=O)[O-])cc2)cc1C,–,inconclusive: -24.8%
Cc1ccc(C)c(COC(=O)c2cc([N+](=O)[O-])ccc2N2CCOCC2)c1,"inconclusive: 29.1 µM [cytotoxic, single point]",–
Cc1cc([N+](=O)[O-])ccc1NC(=O)C(C)N1CCN(c2ccccn2)CC1 (centres undefined),active: 20.6 µM,–

# Source: PubChem BioAssay AID1347076 (National Center for Advancing Translational Sciences (NCATS), 2019)
